# Primary screen of a compound library

Protein sequences, listed by entry. Tags and fused reporters are not part of them.
UniProt E9BF75, entry or part of it: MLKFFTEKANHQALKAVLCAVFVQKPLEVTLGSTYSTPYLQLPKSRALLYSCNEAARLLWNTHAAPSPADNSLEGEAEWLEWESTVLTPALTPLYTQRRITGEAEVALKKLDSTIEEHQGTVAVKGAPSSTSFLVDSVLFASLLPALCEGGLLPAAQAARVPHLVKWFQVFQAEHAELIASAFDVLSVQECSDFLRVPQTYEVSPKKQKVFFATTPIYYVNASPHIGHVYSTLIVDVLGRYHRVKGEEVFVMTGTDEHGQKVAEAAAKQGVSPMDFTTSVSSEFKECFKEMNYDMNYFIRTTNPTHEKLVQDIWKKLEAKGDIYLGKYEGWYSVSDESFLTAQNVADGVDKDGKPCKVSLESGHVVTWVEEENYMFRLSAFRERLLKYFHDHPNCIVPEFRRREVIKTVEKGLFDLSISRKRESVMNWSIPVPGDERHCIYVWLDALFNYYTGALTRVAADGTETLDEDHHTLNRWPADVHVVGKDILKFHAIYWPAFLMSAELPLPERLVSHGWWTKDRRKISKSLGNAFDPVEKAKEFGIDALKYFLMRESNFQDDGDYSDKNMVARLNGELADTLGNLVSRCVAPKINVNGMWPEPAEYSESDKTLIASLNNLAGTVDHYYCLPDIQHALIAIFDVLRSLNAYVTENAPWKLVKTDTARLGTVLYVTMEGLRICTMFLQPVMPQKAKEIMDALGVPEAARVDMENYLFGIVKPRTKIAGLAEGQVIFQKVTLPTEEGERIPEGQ

From ChEMBL document CHEMBL3988442, “University of Dundee, Small-Polar-MMV Screening Library” (2021).

All values are in %. How 0% and 100% were set is not recorded. Most values in the screen are low, and negative values occur. Compounds were drawn at random from those tested, without regard to their results. A dash means the value is not listed here; it may have been measured.

LdMetRS: 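Methionyl-tRNA synthetase (putative), Leishmania donovani (UniProt E9BF75). Primary screen of methionyl-tRNA synthetase; the read-out is not stated. The test concentration is not given. Values are per cent inhibition. Of about 68,000 compounds tested this way, about 24 (0.035%) reached 50% or more in at least one test.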
Mtb heat-shock: 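Assay on Mycobacterium tuberculosis, filed only as a heat shock assay from Cornell; the read-out is not stated. The concentration is filed as 10 mM, unlikely as a test dose, so the dose is not known. The record gives no direction; compounds that gave an IC50 in retests scored well above the rest, so higher reads as stronger inhibition. About 69,000 compounds were tested under these conditions; 1.4% (about 930) showed 50% or more at least once.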

structure,LdMetRS,Mtb heat-shock
CS(=O)(=O)NC1CCN(C(=O)c2ccc(F)cc2)CC1,9.157%,31.19%
CCc1cnc2c(c1Nc1ccc(OC)cc1)c(=O)n(C)c(=O)n2C,5.882%,-5.676%
CC(CNC(=O)c1cccnc1Oc1cccnc1)N(C)C (configuration not stated),13.41%,7.362%
CCO[C@@H]1CO[C@@]2(CCCN(S(=O)(=O)c3ccccc3)C2)C1,2.667%,-27.65%
CC(=O)Nc1ccc(CN2CCOC2=O)cc1,7.116%,1.146%
COC(=O)c1ccc(F)c(S(=O)(=O)Nc2ccc(C(N)=O)cc2)c1,3.495%,-13.05%
O=C(c1cncs1)N1CCOC(c2cc(CCO)[nH]n2)C1 (configuration not stated),10.25%,12.55%
Cc1cccc(CC(=O)N2CCN(c3nccn3C)CC2)c1,13.02%,-
Cc1cc(O)cc(=O)n1CCCC(=O)Nc1n[nH]c2cccc(F)c12,21.95%,-1.341%
Fc1cnc(N2CC[C@@H](N3CCOCC3)[C@@H]2Cc2cccnc2)nc1,-2.618%,-
Cc1ccc(CN2CC[C@H]3C[C@H](C(=O)N4CCCO4)O[C@@H]3C2)o1,14.18%,-
CN1CC(=O)N(c2cnn(C)c2)CC12CCN(Cc1cccs1)C2.O=C(O)C(F)(F)F.O=C(O)C(F)(F)F (configuration not stated),-,-24.03%
CN(Cc1ccccc1)C1COC2(CCN(Cc3nccs3)CC2)C1.O=C(O)C(F)(F)F (configuration not stated),-,16.33%
COc1ccc(-c2ccnc(C3CCNCC3)c2)cc1.Cl,-,-9.431%
O=c1c2cccnc2ccn1Cc1nccn1C1CC1,0%,-26.7%
O=S(=O)(CCN1CCCCC1Cn1cncn1)c1ccccc1 (configuration not stated),4.918%,36.87%
COc1ccc(Cl)c(-c2noc3ncn(CCC(=O)O)c(=O)c23)c1,13.41%,-27.16%
CN1CCCC1c1nnc2n1CCN(S(=O)(=O)c1ccccc1Cl)CC2 (configuration not stated),11.84%,-9.203%
COc1cccc(-c2nc(CNCCCn3cccn3)cs2)c1,7.833%,37.34%
CN(C)c1nccc(C2CN(S(C)(=O)=O)C2)n1,2.222%,-3.967%
COc1ccc(CNC(=O)Cn2ccc3sccc3c2=O)cc1,-1.292%,-0.6252%
CC(C)C(O)C(=O)N1CCC2(CC1)c1nc[nH]c1CCN2S(C)(=O)=O (configuration not stated),1.418%,6.63%
Cc1nc(C)n(CC2CN(CCOc3cccc(F)c3)CCO2)n1 (configuration not stated),23.41%,-20.11%
[H][C@@]12CN(C(=O)NC(C)C)C[C@@]1([H])N(CC(C)C)C(=O)CO2,-,-7.968%
COc1ccc(CCNC(=O)N2CCN(C)[C@@H]3CS(=O)(=O)C[C@@H]32)cc1,8.462%,-
CC(SCCS(C)(=O)=O)c1nc(Cc2ccc(F)cc2)no1 (configuration not stated),0.9677%,0.4033%
OC1CCN(Cc2c(-c3ccco3)[nH]c3ncccc23)CC1,11.06%,-13.47%
COc1ccc(Br)c(C(=O)NCCNc2ccc(C(F)(F)F)cn2)c1,12.5%,14.56%
COCc1noc(C2(c3ccc(F)cc3)CCC2)n1,7.065%,-14.02%
COc1cccc(CNc2c(C)nn(C(C)C)c2C)c1.Cl,-,5.409%
O=S(=O)(Cc1ccc(F)cc1)N1CCN(CC(O)C2CC2)CC1 (configuration not stated),8.741%,8.646%
Cc1nc(CN2CCN(C3CCOC3)Cc3cccnc32)cs1.O=C(O)C(F)(F)F.O=C(O)C(F)(F)F.O=C(O)C(F)(F)F (configuration not stated),-,-17.49%
CSc1ccc(CNC(=O)NCC(O)c2cccc(F)c2)cc1 (configuration not stated),17.66%,-17.72%
Cc1n[nH]c(C)c1NC(=O)CN1CCc2c(nc(C(C)C)n2C)C1,9.645%,-18.68%
O=c1ccc2c(n1Cc1cccnc1)CCN(Cc1ccoc1)CC2,18.4%,-
Cc1cc(CN(C)C(=O)C(c2ccccc2C)N(C)C)on1 (configuration not stated),11.17%,-11.68%
CNS(=O)(=O)CCN1CC(c2ccccc2)(c2ccccc2)CCC1=O,12.1%,-36.15%
O=C(C1SCCc2sccc21)N1CCN(CCO)CC1 (configuration not stated),12.38%,-3.969%
COCCCNS(=O)(=O)c1ccc2c(c1)NC(=O)C(C)O2 (configuration not stated),-5.851%,14.17%
O=C(O)C1(Oc2ccc3c(c2)OCO3)CCN(C2CCOCC2)CC1,11.83%,-2.757%
Cc1ccc2snc(C(=O)N3CCN(C(=O)NCCC(C)C)CC3)c2c1,-20.99%,-10.32%
CC(=O)N1CCC2(CC1)CCN(C(=O)c1ccc(F)c(C(F)(F)F)c1)C2,6.536%,-10.74%
CCCNC(=O)Cn1cc(OC)c(=O)cc1CSc1nc(C)cc(C)n1,7.042%,-15.35%
Cc1nnc(C(NS(=O)(=O)c2cc(C)c(F)cc2F)C(C)C)[nH]1 (configuration not stated),26.61%,7.729%
CCC(CO)N(Cc1ccsc1)Cc1ccc(-c2ccn[nH]2)s1 (configuration not stated),9.067%,-3.966%
Cc1ccnc(C(Nc2nccc(-c3ccc(C)nc3C)n2)C2CC2)c1 (configuration not stated),19.24%,-7.098%
COC1COC2(CCN(Cc3cccc(Cl)c3)CC2)C1 (configuration not stated),10.66%,-
CC(=O)NCc1noc2c1CN(CCN1CCCC1)CC2.O=C(O)C(F)(F)F.O=C(O)C(F)(F)F,-,-16.51%
Cc1cc(-c2nn(C)c(Cl)c2CN2CCOCC(O)C2)no1 (configuration not stated),6.667%,5.69%
Cc1noc(CCNC(=O)NCC(=O)NCc2ccccc2)n1,8.303%,-5.03%
CN(C)S(=O)(=O)N1CC[C@]2(O)CCN(CCCc3cccnc3)C[C@@H]2C1,17.13%,-
CS(=O)(=O)NC(=O)c1nnn(-c2ccccc2)c1C1CC1,8.659%,-26.05%
Cn1cnc(S(=O)(=O)N2CCCC2)c1Cl,9.735%,74.4%
Cc1noc(C)c1CN1CCC(NC(=O)OC(C)(C)C)CC1,7.258%,-19.15%
Cc1noc(C)c1CN(C)C(=O)Nc1cnn(CC2CCCO2)c1 (configuration not stated),10.15%,0.5225%
c1cncc(N2CCCn3nnc(CN4CCOCC4)c3C2)c1,5.495%,0.9544%
Cc1csc(N2CCCN(C(=O)c3nccnc3N)CC2)n1,0.2786%,1.604%
CN(C)c1nc2c(c(N3CCCC3)n1)CCN(C(=O)c1ccc[nH]1)CC2,18.62%,-11.43%
O=C(CN1C(=O)c2ccccc2CS1(=O)=O)c1ccccc1,2.717%,-7.589%
Cc1csc(NC(=O)c2cnc(C3CCCN3)cn2)n1 (configuration not stated),22.58%,-
CNC(=O)COc1cccc(CNC(=O)c2c(C)noc2C(C)C)c1,20.23%,-0.3512%
Cc1cc(C)n(C2CCCN(C(=O)c3cnc4onc(C)c4c3)C2)n1 (configuration not stated),17.36%,24.72%
CN1CCN(C(=O)c2cn(-c3ccc(C(F)(F)F)cn3)nn2)CC1,10.57%,-14.19%
Cc1noc(Cl)c1CCC(=O)N1CCN(Cc2ccncc2)CC1,12.57%,2.001%
CCn1nc(C)c2nnn(CC(=O)Nc3ccc(C)c(C)c3)c(=O)c21,0.2513%,11.17%
Cc1noc(C2CCN(c3oc(C)nc3C#N)CC2)n1,11.18%,4.635%
O=C1CCCN1CCc1noc(-c2ccc(Cl)cc2)n1,8.193%,20.42%
CSCC(=O)N1CCCN(c2ccncc2C)CC1,8.511%,-21.76%
CN1CCN([C@@H]2CCN(C3CCOC3)[C@H]2Cc2cnn(C)c2)CC1.O=C(O)C(F)(F)F.O=C(O)C(F)(F)F.O=C(O)C(F)(F)F (some centres not stated),-,-32.63%
CC(C)N(C)Cc1cnc2n1CCN(C(=O)Cc1ccccn1)C2,-1.104%,-
CN(C)S(=O)(=O)N1C[C@@H]2CC[C@H](C1)N(Cc1ccc3c(c1)OCCO3)C2,14.18%,-
Cc1n[nH]c(C)c1CC(=O)N1CCC(O)(CN2CCOCC2)C1 (configuration not stated),13.98%,1.541%
O=C(Cc1ccc(F)cc1Cl)N[C@@H]1CCNC[C@H]1O,13.17%,-22.62%
CC(C)Nc1ncnc2c1CCN(Cc1nccn1C)CC2.O=C(O)C(F)(F)F.O=C(O)C(F)(F)F,-,-40.16%
O=C(O)C(F)(F)F.[H][C@@]12CCN(CC3CC3)C[C@@]1([H])O[C@@H](c1nc(C)no1)C2,-,9.177%
Cc1noc(C)c1CN1CCO[C@H]2CN(C3CCOCC3)C[C@H]21,7.5%,-
CC1CCN(C(=O)c2ccnc(-n3cncn3)c2)c2ccccc21 (configuration not stated),7.337%,-7.843%
CN(C)C(=O)CN1CCCC12CCCN(c1ncc(F)cn1)C2 (configuration not stated),1.571%,-
CN(C)c1nccc(NCc2cc(-c3cccs3)n[nH]2)n1,5.583%,-4.391%